# Experimental data published in PubChem BioAssay AID587 (National Center for Advancing Translational Sciences (NCATS), 2007).
# The whole screen tested about 59,000 compounds, of which about 35 (0.06%) were called active. Inconclusive means that the source gave no clear call. Such entries were picked first, then a sample of the others. Cut-off read from the data, not from the text of the source: active = max dye-equivalent concentration above about 10 nM; inconclusive = between about 1.1 nM and that limit; inactive = weaker than that.
# Test: qHTS Assay for Spectroscopic Profiling in Texas Red Spectral Region
# Settings: Compound fluorescence, Texas Red channel, 547/618 nm; hits give high values
# Outline: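 Texas Red-region profiling: compounds in 100 mM Tris pH 8.0 were read at 547/618 nm after 15 min at room temperature. Intensities were normalized against a six-point Texas Red standard series to give dye-equivalent concentration.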
row,SMILES,max dye-equivalent concentration
1,CC(C)=CC(=O)OCC(=O)Nc1ccc(F)cc1Cl,inconclusive: 1.3 nM
2,c1cncc(-c2nc(NCCN3CCOCC3)c3ccccc3n2)c1,inactive
3,OC(CNCC(c1ccco1)N1CCCCC1)c1ccccc1 (centres undefined),inconclusive: 1.4 nM
4,O=c1cc(CSc2ccc(Cl)cc2)nc(N2CCOCC2)[nH]1,inconclusive: 1.6 nM
5,Cc1cc2cc(CCNC(=O)C(C)C)c(=O)[nH]c2cc1C,inconclusive: 1.2 nM
6,COc1cccc2cc(C(=O)N3CCN(C/C=C/c4ccccc4)CC3)c(=O)oc12,inconclusive: 1.5 nM
7,NC(=O)C[C@@H]1N[C@]2(C(=O)Nc3ccccc32)[C@@H]2C(=O)N(c3cc(C(F)(F)F)ccc3Cl)C(=O)[C@H]12,inconclusive: 1.6 nM
8,Cc1ccccc1CS(=O)(=O)Cc1ccc(C(=O)NCc2ccccn2)o1,inconclusive: 1.8 nM
9,c1cc2[nH]snc2c2nc(C3CC3)nc12,inconclusive: 1.1 nM
10,Cc1nc2cnc(Nc3ccccc3)nc2n(CCc2ccccc2)c1=O,inconclusive: 1.5 nM
11,COc1ccc(-n2c(COc3ccc(C)cc3)nnc2SCC(N)=O)cc1,inconclusive: 1.4 nM
12,CN1CCN(c2ccccc2NC(=O)c2ccc(-c3ccccc3)cc2)CC1,inconclusive: 2.5 nM
13,O=C1OC2(c3ccccc3)C3CCCC2C13,inconclusive: 1.1 nM
14,COc1ccccc1-c1cc(Nc2ccn[nH]2)ncn1,inactive
15,CC(C)NC(=O)c1cc2cc(Br)ccc2oc1=O,inconclusive: 1.1 nM
16,Cc1oc(C)c2c(=O)ccc3c(c12)OC(N)=C(C#N)C3c1ccccc1Cl (centres undefined),inactive
17,NC[C@H](O)C1CCCCCCC1,inconclusive: 1.2 nM
18,CC(C)C(NC(=O)c1ccco1)C(=O)NCC(c1ccco1)N1CCCCC1 (centres undefined),inconclusive: 2 nM
19,O=C(C1=C(O)C(=O)N(Cc2ccco2)C1c1cccnc1)c1cc2ccccc2o1 (centres undefined),inconclusive: 1.9 nM
20,O=C(Nc1ccc(S(=O)(=O)N2CCCC2)cc1Cl)C1=COCCO1,inconclusive: 1.5 nM
21,COc1ccc(Br)cc1CNC(=O)C1CCCN(c2nc3ccccc3o2)C1 (centres undefined),inconclusive: 1.1 nM
22,N#Cc1c(N)nc2c(c1-c1ccco1)CCCCC2,inconclusive: 2.2 nM

row,SMILES,max dye-equivalent concentration
1,O=C(c1nc2ncccn2n1)N1CCN(c2ccc(F)cc2)CC1,inconclusive: 1.1 nM
2,C=C1CC[C@@H](O)C/C1=C/C=C1\CCC[C@]2(C)[C@@H]1CC[C@H]2[C@@H](C)CCCC(C)C,inactive
3,CCC1CCCCN1S(=O)(=O)c1ccc(S(=O)(=O)N(Cc2cccs2)C2CC2)cc1 (centres undefined),inconclusive: 1.4 nM
4,CCOc1cc(C2C(C(=O)N3CCCCC3)=C(C)NC3=C2C(=O)CC(C)(C)C3)ccc1O (centres undefined),inconclusive: 3.1 nM
5,COCCN1CN=C(Nc2nc3ccccc3s2)NC1,inconclusive: 1.3 nM
6,CCOC(=O)c1ccccc1NC(=O)CSc1nnnn1C1CCCCC1,inconclusive: 2.1 nM
7,Nc1cc(C(=O)OCC(=O)NCc2ccco2)ccc1Cl,inconclusive: 2.8 nM
8,CN(C)c1ccc(C2C=C(c3ccc(Cl)cc3OC(F)F)Nc3ncnn32)cc1 (centres undefined),inactive
9,NS(=O)(=O)c1ccc(NCc2nc3ccccc3[nH]2)cc1,inactive
10,COc1ccccc1-c1cc(C(=O)Nc2cc(C)nn2-c2ccccc2)no1,inconclusive: 1.2 nM
11,CCc1nnc(NC(=O)CCC(=O)N2CCN(C3CCCCC3)CC2)s1,inconclusive: 1.3 nM
12,CCn1c(Sc2nc(C)nc3scc(-c4cccs4)c23)n[nH]c1=O,inconclusive: 1.4 nM
13,Cc1ccc(S(=O)(=O)N2CCC(C(=O)OCC(=O)N3CCc4ccccc43)CC2)cc1,inconclusive: 1.7 nM
14,COc1cc(C(=S)N2CCCC2)ccc1O,inconclusive: 1.5 nM
15,COC(=O)c1cn(C(=O)c2ccccc2F)nc1N,inconclusive: 2.1 nM
16,CCC(c1nnnn1Cc1cccs1)N1CCN(c2nc3ccccc3s2)CC1 (centres undefined),inconclusive: 1.1 nM
17,N#CC(c1nc2ccccc2nc1N1CCCC1)S(=O)(=O)c1cccs1 (centres undefined),inactive
18,C=CCn1c(SCc2ccccc2C#N)nnc1-c1ccccc1O,inconclusive: 2.4 nM
19,CCc1ccc2[nH]c(=O)c(C(c3nnnn3CCOC)N3CCN(c4ccccc4F)CC3)cc2c1 (centres undefined),inconclusive: 1.8 nM
20,Cc1noc(NS(=O)(=O)c2ccc(N/C=C/C(=O)c3ccc4c(c3)OCO4)cc2)c1C,inconclusive: 1.2 nM
21,CC(C)(C)OC(=O)NCCc1nnc(SCC(N)=O)o1,inconclusive: 1.5 nM
22,COc1ccc(CCNc2oc(-c3ccccc3OC)nc2C#N)cc1OC,inconclusive: 1.1 nM

# Exported with tabs: entries from further up
row	SMILES	max dye-equivalent concentration
20	Cc1noc(NS(=O)(=O)c2ccc(N/C=C/C(=O)c3ccc4c(c3)OCO4)cc2)c1C	inconclusive: 1.2 nM
21	CC(C)(C)OC(=O)NCCc1nnc(SCC(N)=O)o1	inconclusive: 1.5 nM
